From patent publication CN111171151A
No constants are given. Whether binding was seen depends on the method and setting.

Sequences of proteins named here, by UniProt entry; tags and fusion partners are left off. Residues count along the entry.
UniProt P09038, residues 143-288: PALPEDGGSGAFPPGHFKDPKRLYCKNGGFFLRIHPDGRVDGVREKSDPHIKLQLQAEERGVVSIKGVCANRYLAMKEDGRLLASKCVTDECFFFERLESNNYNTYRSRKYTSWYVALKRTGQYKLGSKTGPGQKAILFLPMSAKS
UniProt P01133, residues 971-1023: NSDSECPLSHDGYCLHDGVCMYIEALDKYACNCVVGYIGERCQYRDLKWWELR

What was measured:
Test in all cases: ELISA, coated protein 100 ng/well, anti-HA detection
Her2 = Her2 (UniProt P04626)
bFGF = bFGF (UniProt P09038)
EGF = EGF (UniProt P01133)

binding (Her2): no binding (tested: 100ng/孔) | binding (bFGF): no binding (tested: 100ng/孔) | binding (EGF): no binding (tested: 100ng/孔)
B1: 抗EGFR纳米抗体 Nb H3 (VHH, not shown: small tags and cut ends)
VHH: QVQLQESGGGSVQAGGSLNLSCAVSGYTGCKNGMSWYRQAPGKEREFVSGIDRDGSPSYADSVKGRFTISQDNAKNIVFLQMNSLRPEDTAMYYCATNPQRNIYGGSWCNYWGQGTQVTVSS
